From patent US8158764B2 (priority 2006, dated 2012)

Test: Tail flick test (analgesic activity)
Assay type: in vivo, mouse
Design: unit not given here
Protocol: The “Tail flick” test (test of D'Amour & Smith, 1941, Pharmacol Exp Ther; 72: 74-79) consists in placing the tail of a mouse, after administration of a product, in front of an infrared source in order to produce a nociceptive stimulus (a surface temperature of 55° C.). The reaction time (RT) of the mouse (latency between the start of the light beam and the moment the mouse withdraws its tail) was measured in duplicate at 8 times spread from […] after administration of the product. A maximal 10 second-period has been chosen as the maximal reaction time in order to avoid any tissue damage for the animal.
Products were intravenously-administered at doses comprised between 0.5 and 8 mg/kg (8 mice per group).
Two measures of reaction time were realized before administration of the product for each mouse so as to establish a base line.
The MPE % represents the percentage of possible maximal effect and corresponds to the following formula: […]

**Q.** What does the source list for CN1CC[C@]23c4c5ccc(O)c4O[C@H]2[C@@H](O)C=C[C@H]3[C@H]1C5 [Morphine, reference compound]?
**A.** AUC, tail flick test (dose 1.7 mg/Kg iv): 60.62; AUC, tail flick test (dose 3.4 mg/Kg iv): 589.54; AUC, tail flick test (dose 6.8 mg/Kg iv): 1529.18
